In article doi:10.1101/2022.12.14.520480:
Like-named read-outs stand apart in the source and are kept apart here. No constants are given. Whether binding was seen depends on the method and setting. In cells and extracts the contact can be indirect. A yes stands for co-enrichment or nearness to the bait. Other partners may have been found. For some assays here: Where a sequence is shown, tags or fusion partners need not be part of it.

By UniProt entry, the sequences of proteins in these tests, tags left out. Residues count along the entry.
UniProt Q9NT62: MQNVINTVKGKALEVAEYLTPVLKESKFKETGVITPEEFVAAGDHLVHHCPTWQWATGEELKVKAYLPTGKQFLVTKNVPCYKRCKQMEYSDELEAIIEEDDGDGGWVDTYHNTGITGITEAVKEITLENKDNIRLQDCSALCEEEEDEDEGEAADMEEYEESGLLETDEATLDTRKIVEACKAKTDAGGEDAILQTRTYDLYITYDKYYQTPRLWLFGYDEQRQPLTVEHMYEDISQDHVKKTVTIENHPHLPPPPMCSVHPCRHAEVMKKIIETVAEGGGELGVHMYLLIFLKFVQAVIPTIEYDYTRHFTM
UniProt Q4KWH8: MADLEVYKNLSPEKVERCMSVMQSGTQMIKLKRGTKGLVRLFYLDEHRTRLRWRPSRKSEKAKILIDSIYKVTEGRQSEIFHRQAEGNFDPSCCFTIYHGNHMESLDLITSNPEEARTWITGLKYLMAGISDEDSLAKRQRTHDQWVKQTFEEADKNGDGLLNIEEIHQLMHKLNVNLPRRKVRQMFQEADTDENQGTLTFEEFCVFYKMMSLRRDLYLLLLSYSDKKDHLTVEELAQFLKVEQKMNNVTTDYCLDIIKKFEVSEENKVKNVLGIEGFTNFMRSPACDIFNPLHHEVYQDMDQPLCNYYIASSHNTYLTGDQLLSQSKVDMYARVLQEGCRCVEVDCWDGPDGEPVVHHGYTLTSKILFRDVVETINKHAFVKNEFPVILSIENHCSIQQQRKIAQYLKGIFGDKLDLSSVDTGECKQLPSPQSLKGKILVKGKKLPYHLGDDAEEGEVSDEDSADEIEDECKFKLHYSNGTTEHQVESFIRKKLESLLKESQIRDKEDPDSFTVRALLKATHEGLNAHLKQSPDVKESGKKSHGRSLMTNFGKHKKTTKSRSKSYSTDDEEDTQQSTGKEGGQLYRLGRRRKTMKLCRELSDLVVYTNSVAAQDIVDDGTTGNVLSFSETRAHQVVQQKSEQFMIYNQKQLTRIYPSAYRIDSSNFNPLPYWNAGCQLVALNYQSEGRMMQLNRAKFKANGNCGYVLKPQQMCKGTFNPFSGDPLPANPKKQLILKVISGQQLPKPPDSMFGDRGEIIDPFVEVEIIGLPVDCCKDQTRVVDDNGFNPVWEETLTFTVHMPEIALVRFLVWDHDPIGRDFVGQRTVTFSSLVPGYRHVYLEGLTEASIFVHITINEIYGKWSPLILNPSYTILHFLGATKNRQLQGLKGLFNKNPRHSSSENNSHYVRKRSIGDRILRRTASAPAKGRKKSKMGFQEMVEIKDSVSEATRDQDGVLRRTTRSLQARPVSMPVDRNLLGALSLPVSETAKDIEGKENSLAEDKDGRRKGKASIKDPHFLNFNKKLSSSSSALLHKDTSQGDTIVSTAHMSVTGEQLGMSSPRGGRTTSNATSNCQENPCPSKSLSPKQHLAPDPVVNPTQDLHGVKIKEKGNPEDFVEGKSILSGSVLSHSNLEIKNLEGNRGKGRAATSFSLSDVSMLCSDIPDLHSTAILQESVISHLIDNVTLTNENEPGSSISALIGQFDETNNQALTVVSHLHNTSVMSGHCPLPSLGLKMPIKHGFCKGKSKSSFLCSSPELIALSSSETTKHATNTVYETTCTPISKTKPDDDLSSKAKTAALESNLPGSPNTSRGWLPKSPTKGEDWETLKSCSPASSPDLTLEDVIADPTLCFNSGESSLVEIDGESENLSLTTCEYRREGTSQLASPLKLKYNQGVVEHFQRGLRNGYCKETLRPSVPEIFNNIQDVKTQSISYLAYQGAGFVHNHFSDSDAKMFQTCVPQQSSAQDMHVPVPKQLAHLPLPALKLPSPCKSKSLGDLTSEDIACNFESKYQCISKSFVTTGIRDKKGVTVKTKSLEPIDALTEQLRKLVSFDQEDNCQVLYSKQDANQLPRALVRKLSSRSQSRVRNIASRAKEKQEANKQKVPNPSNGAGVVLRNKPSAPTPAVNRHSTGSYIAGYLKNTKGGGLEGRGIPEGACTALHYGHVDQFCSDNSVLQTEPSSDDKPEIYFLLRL
UniProt Q8TDY2: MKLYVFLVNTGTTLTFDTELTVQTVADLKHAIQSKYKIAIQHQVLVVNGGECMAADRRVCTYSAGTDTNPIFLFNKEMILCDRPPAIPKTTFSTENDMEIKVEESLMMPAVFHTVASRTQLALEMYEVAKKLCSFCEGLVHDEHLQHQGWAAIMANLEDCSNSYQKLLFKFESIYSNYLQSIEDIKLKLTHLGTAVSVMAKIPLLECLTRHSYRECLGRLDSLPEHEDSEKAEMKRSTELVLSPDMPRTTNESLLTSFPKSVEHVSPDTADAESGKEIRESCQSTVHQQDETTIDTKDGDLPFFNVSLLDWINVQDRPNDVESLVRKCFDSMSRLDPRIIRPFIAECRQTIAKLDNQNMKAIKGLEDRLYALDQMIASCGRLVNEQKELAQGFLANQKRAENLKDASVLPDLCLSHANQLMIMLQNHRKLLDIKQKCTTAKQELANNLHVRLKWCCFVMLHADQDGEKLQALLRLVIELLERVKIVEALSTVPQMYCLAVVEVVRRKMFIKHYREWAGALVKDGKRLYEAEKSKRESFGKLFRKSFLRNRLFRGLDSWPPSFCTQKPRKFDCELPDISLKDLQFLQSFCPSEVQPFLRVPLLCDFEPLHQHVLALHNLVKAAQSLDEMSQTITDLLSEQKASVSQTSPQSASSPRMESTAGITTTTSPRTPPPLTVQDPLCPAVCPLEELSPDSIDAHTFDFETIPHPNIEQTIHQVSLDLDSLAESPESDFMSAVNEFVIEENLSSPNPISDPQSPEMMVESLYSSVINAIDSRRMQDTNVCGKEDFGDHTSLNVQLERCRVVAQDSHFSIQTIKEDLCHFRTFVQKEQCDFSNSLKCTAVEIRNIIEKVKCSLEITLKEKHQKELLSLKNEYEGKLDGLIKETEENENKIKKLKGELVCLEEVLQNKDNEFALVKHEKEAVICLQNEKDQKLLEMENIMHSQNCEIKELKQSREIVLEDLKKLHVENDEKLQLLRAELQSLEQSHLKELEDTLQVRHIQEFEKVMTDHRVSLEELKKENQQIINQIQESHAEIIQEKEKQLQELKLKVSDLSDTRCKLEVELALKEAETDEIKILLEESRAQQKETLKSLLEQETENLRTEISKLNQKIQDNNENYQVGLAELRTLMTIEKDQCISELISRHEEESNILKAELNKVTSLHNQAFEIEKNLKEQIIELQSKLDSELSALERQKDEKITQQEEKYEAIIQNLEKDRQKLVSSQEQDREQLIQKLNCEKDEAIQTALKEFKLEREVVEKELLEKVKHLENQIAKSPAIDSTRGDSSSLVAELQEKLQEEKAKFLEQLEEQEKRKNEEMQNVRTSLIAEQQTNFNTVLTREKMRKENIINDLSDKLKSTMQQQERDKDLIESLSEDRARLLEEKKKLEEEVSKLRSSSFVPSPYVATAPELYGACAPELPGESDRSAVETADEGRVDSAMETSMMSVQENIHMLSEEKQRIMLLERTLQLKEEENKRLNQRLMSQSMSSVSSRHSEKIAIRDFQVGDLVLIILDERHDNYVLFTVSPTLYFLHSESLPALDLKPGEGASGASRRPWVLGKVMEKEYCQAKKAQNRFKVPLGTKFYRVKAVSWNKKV
UniProt Q00610: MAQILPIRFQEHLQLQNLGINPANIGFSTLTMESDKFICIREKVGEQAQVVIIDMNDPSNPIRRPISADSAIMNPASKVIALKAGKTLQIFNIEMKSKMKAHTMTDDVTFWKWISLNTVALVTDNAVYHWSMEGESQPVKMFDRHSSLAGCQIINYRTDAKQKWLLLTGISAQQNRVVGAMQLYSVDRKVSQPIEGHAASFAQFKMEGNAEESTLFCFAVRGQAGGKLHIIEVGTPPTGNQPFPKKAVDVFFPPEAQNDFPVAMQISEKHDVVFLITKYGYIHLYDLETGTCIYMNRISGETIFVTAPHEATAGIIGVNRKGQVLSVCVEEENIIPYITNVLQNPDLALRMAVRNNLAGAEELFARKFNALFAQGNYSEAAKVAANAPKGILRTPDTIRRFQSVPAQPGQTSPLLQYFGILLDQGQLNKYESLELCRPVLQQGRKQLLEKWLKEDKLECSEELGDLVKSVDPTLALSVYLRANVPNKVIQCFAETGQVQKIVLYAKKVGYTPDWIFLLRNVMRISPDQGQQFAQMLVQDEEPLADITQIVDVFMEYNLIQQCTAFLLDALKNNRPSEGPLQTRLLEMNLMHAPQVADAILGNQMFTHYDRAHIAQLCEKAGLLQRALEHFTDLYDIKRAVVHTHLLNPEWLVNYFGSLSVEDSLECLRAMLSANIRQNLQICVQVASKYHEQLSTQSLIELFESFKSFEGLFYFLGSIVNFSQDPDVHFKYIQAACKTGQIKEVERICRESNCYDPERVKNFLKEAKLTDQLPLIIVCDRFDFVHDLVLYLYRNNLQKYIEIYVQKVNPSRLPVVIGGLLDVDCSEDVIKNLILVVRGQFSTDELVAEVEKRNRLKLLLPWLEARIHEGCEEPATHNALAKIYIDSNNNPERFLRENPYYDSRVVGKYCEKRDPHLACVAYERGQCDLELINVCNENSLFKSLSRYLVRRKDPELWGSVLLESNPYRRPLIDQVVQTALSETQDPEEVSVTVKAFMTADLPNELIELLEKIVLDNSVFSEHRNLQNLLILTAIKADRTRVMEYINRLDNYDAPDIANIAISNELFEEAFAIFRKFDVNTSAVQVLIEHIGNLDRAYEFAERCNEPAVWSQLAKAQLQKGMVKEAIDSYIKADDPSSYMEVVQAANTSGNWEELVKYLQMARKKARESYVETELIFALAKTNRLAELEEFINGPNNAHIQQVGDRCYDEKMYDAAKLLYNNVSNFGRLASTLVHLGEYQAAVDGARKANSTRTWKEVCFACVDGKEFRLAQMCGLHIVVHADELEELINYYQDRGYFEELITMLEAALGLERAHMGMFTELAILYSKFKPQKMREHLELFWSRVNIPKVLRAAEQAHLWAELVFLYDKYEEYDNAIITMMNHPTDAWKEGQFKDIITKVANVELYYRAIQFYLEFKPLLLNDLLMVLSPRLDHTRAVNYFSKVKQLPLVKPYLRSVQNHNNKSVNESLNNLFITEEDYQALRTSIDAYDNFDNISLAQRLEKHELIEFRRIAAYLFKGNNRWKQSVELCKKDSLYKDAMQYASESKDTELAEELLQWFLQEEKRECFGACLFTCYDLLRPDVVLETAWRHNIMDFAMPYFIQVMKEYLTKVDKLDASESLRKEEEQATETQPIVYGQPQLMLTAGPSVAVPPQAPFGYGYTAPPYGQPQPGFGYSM
UniProt P33176: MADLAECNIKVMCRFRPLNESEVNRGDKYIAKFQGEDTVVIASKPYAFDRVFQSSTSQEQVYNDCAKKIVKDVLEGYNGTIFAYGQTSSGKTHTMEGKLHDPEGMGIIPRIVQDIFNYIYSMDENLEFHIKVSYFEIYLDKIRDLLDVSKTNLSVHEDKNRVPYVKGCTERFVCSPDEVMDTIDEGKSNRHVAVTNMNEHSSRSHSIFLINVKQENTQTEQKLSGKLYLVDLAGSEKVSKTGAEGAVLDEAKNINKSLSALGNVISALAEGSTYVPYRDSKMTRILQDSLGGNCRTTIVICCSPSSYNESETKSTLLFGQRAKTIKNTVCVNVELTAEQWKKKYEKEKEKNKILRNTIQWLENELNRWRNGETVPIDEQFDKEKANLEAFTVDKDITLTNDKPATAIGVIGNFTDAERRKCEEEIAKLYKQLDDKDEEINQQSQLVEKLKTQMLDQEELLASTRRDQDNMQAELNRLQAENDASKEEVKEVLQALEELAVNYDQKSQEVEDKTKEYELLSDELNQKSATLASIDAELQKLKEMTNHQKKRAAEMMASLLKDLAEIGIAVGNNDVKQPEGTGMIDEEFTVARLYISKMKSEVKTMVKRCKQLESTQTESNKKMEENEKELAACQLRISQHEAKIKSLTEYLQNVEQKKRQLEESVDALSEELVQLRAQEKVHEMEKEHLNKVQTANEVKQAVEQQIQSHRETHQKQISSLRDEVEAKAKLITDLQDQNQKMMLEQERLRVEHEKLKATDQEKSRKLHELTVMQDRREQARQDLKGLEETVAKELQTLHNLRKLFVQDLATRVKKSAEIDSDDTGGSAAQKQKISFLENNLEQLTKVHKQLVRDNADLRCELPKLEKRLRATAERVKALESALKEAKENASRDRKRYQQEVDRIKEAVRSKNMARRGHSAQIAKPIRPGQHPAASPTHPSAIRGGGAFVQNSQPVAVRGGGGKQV
UniProt Q9P0T7, residues 21-183: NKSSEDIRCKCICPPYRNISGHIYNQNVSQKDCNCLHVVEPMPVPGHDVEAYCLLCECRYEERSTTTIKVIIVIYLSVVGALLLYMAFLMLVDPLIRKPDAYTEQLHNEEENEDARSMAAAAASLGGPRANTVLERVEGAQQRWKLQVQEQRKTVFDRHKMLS

Experiments:
LAMP1-APEX2 = biological target: T1, LAMP1-APEX2 (UniProt P11279); experiment: proximity labelling
T1 sequence: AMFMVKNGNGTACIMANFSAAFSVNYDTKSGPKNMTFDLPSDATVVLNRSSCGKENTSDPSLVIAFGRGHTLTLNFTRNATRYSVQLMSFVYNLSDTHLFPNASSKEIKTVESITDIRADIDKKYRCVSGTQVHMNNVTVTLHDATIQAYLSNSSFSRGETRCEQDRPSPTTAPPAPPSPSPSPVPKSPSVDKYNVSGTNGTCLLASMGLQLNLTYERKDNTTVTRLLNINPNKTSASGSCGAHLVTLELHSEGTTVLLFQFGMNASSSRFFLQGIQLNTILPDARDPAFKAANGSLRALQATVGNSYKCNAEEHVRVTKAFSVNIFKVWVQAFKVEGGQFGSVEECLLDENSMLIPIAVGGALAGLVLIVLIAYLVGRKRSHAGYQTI

APEX2-TBC1D15 [1] = biological target: T2, APEX2-TBC1D15 (UniProt Q8TC07); experiment: proximity labelling
T2 sequence: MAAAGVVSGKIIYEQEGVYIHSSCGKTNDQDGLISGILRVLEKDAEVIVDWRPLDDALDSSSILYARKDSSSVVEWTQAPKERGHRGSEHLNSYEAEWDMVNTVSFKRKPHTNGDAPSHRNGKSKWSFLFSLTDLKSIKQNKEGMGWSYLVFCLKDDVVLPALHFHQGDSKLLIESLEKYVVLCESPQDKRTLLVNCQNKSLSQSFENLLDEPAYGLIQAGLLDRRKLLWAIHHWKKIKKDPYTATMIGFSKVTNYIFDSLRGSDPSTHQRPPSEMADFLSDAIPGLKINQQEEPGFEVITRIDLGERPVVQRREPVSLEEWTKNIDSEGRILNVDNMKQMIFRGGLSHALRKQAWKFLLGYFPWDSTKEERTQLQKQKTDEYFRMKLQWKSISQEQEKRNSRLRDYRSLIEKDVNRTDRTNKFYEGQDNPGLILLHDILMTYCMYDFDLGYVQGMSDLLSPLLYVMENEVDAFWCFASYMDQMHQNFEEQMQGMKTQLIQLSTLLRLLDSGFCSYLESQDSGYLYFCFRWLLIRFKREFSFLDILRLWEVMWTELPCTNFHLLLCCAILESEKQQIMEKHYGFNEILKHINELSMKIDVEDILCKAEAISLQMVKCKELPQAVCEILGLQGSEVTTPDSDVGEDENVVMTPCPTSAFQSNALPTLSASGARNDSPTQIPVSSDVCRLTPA

APEX2-TBC1D15 [2] = biological target: T2, APEX2-TBC1D15; experiment: proximity labelling; remark: listed apart in the source
TBC1D15-GFP wild type = biological target: T3, TBC1D15-GFP wild type (UniProt Q8TC07); experiment: affinity purification with mass spectrometry
T3 sequence: T2 sequence

| Substance | binding (LAMP1-APEX2) | binding (APEX2-TBC1D15 [1]) | binding (APEX2-TBC1D15 [2]) | binding (TBC1D15-GFP wild type) |
| --- | --- | --- | --- | --- |
| ATG3 (from UniProt Q9NT62 1-314) | binds | binds |  |  |
| ATP6V1B2 (endogenous) (from UniProt P21281 1-511) |  | binds |  |  |
| PLCH1 (from UniProt Q4KWH8 1-1693) |  | binds |  |  |
| RB1CC1 (from UniProt Q8TDY2 1-1594) | binds | binds |  |  |
| VPS13C (from UniProt Q709C8 1-3753) | binds |  |  |  |

Results, then the substance that gave them:

| binding (LAMP1-APEX2) | binding (APEX2-TBC1D15 [1]) | binding (APEX2-TBC1D15 [2]) | binding (TBC1D15-GFP wild type) | Substance |
| --- | --- | --- | --- | --- |
|  | binds | binds | binds | Clathrin heavy chain CLTC (endogenous) (from UniProt Q00610 1-1675) |
|  | binds |  |  | KIF1A (from UniProt Q12756 1-1690) |
|  | binds | binds | binds | KIF5B (endogenous) (from UniProt P33176 1-963) |
| binds |  |  |  | PIP5K1A (from UniProt Q99755 1-562) |
| binds |  |  |  | Rab7 (human (endogenous in HeLa)) |
|  | binds |  |  | TMEM9 (from UniProt Q9P0T7 21-183) |
